In all, about 2,400 compounds went through this assay and about 20 (0.8%) were called active.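 How the source made its calls: active means AC50 no more than ten times the highest tested concentration, or full inhibition at every dose giving a flat fit (cut at about 30 µM in these data); inconclusive means flat fit with activity between 30% and 70%, or poor-quality invalid fit; inactive means AC50 more than ten times the top tested dose.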 Some of the results follow.
Assay: luciferase-based ADP detection interference – biochemical, luminescence, cell-free, homogeneous, artefact control for GSK-3a inhibitor project, dose response (AID 463205);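 further: kinase-free counter-screen against the ADP-Glo detection reagents only; potency is for inhibitors that reduce the luminescence signal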
Conditions: Cell-free ADP-Glo detection reagents, 5 uM ADP

AC50, inactive:
N#CCCn1cc(C(=O)N2CCCCC2)c(-c2cccc([N+](=O)[O-])c2)n1 > 30 µM
Cc1ccc(C(=O)O/N=C(\N)c2cccc([N+](=O)[O-])c2)cc1 > 30 µM
Cc1ccc(S(=O)(=O)Nc2cc(Cl)c(O)c3ncccc23)cc1 > 30 µM
COc1ccc(OCC(=O)N/N=C/c2ccc(N(C)C)cc2)cc1 > 30 µM
O=C(COC(=O)CCc1ccc(S(=O)(=O)N2CCOCC2)cc1)Nc1ccc(Cl)cn1 > 30 µM
O=C(NCCCN1CCOCC1)c1ccc(Cl)c([N+](=O)[O-])c1 > 30 µM
O=C(O)c1ccc2c(c1)S(=O)(=O)c1cc(Cl)ccc1C2=O > 30 µM
O=C(c1ccc2c3n(nc2c1)-c1ccc(Cl)cc1CO3)N1CCCCC1 > 30 µM
CCOc1nc(NCCN2CCOCC2)nc(Nc2ccc([N+](=O)[O-])cc2)n1 > 30 µM
O=c1c2ccccc2oc2cc(NCCCn3ccnc3)ccc12 > 30 µM
CN1/C(=C\C=[N+](C)c2ccccc2)C(C)(C)c2ccccc21 > 30 µM
O=C(CSc1n[nH]c(=O)n1-c1ccc2c(c1)OCCO2)Nc1ccccc1 > 30 µM
Cc1ccc(-c2[nH]nc3c2C(c2ccoc2)C(C#N)=C(N)O3)cc1C (stereo unspecified) > 30 µM
COc1cccc(C(=O)Nc2ccncc2)c1OC > 30 µM
COc1ccc(-c2cc(C(=O)N3CCN(c4ccccc4)CC3)no2)cc1 > 30 µM
Clc1ccccc1/C=N/Nc1cc(N2CCOCC2)ncn1 > 30 µM
c1ccc2c(c1)Sc1ccccc1-n1cnnc1-2 > 30 µM
Cc1ccccc1/C=N/Nc1nc2ccccc2[nH]1 > 30 µM
CCCCC(=O)Nc1nn(CC)c2nc3c(C)cccc3cc12 > 30 µM
Cc1ccc(C(=O)Nc2cccc(-c3cnc4ccccc4n3)c2)cc1 > 30 µM
CCOC(=O)c1c(NC(=O)CSc2nnc(CNc3ccc(C)cc3C)o2)sc(C)c1C > 30 µM
CCn1c(C)nc2cc(-c3nnc(-c4c(-c5ccccc5)noc4C)o3)ccc21 > 30 µM
O=[N+]([O-])c1ccc(NCCCN2CCOCC2)c(Cl)c1 > 30 µM
Cc1cc(NS(=O)(=O)c2ccc(Nc3nc(-c4ccc(O)cc4)cs3)cc2)no1 > 30 µM
COc1cccc(-n2c(SCC(=O)NC3CCCC3)nnc2-c2ccco2)c1 > 30 µM
CN(c1ccccc1)c1nc(N)c([N+](=O)[O-])c(Nc2ccccc2F)n1 > 30 µM
CCOC(=O)c1sc(NC(=O)C2CC2)nc1C > 30 µM
O=C(N/N=C/c1ccc(Cl)c(Cl)c1)c1ccc2nc[nH]c2c1 > 30 µM
CC(NC(=O)COc1ccccc1F)C1CC2CCC1C2 (stereo unspecified) > 30 µM
COC(=O)C1=C(C)NC(=O)NC1c1ccc2c(c1)OCO2 (stereo unspecified) > 30 µM
Cc1cc(C)c(OCC(O)CNC(C)(C)C)c(C)c1 (stereo unspecified) > 30 µM
CN(C)C(=S)Nc1ccc([N+](=O)[O-])cc1 > 30 µM
CC(=O)Nc1ccccc1C > 30 µM
CC(C)c1ccc(C2CC(=O)N3CN(C)CSC3=C2C#N)cc1 (stereo unspecified) > 30 µM
CCOc1ccc(Nc2nc(N(C)c3ccccc3)nc(N)c2[N+](=O)[O-])cc1 > 30 µM
O=c1c(O[C@@H]2O[C@H](CO)[C@@H](O)[C@H](O)[C@H]2O)c(-c2ccc(O)cc2)oc2cc(O)cc(O)c12 > 30 µM
NC1=NC(=O)/C(=C/c2ccc(-c3ccc(S(N)(=O)=O)cc3)o2)S1 > 30 µM
COc1ccc(-c2cnc(N)nc2-c2ccc(OC)cc2O)cc1 > 30 µM
COc1ccc(-c2nnc(-c3ccccc3O)o2)cc1 > 30 µM
COc1c(-c2ccc(O)cc2)oc2cc(O)cc(O)c2c1=O > 30 µM
COc1ccc(-c2nc(N)ncc2-c2ccc(OC)c(OC)c2)c(O)c1 > 30 µM
CC(C)(C)C(=O)c1cnc(Nc2ccccc2Cl)s1 > 30 µM
CCC(Sc1ccc2nnc(-c3cccnc3)n2n1)C(=O)O (stereo unspecified) > 30 µM
CCCCC(=O)Nc1ccc2c(c1)C(=O)NC2=O > 30 µM
CC1(C)CC(=O)C2=C(C1)Nc1ncnn1C2c1ccccn1 (stereo unspecified) > 30 µM
O=C1NC(=O)/C(=C/c2ccc(O)cc2)S1 > 30 µM
COc1ccc(C2=Nn3c(nnc3-c3ccncc3)SC2)cc1OC > 30 µM
O=C(CCN1CCOCC1)Nc1cccc(Br)c1 > 30 µM
Cn1c(SCC(=O)N/N=C/C=C\c2ccco2)nc2ccccc21 > 30 µM
COc1cc(Br)c(C2C(C#N)=C(N)Oc3n[nH]c(-c4cccnc4)c32)cc1OC (stereo unspecified) > 30 µM
CC1CCCCC12NC(=O)N(CC(=O)Nc1sccc1C(N)=O)C2=O (stereo unspecified) > 30 µM
COc1ccc2nc(SCC(=O)Nc3nccs3)[nH]c2c1 > 30 µM
Cc1onc(-c2c(F)cccc2Cl)c1C(=O)OCC(=O)Nc1c(C)n(C)n(-c2ccccc2)c1=O > 30 µM
Cc1cccc(Nc2nc(C)cc(C)n2)c1 > 30 µM
c1ccc2c3c([nH]c2c1)-c1[nH]ncc1CC3 > 30 µM
CC(=O)CSc1nc(N)c(C#N)c(-c2cccs2)c1C#N > 30 µM
c1ccc2[nH]c(-c3ccncc3)nc2c1 > 30 µM
CC(CC(=O)Nc1ncc([N+](=O)[O-])s1)c1ccccc1 (stereo unspecified) > 30 µM
Cc1cccc(/C=c2\s/c(=C\C(=O)C(C)(C)C)[nH]c2=O)c1 > 30 µM
COc1cc2c(cc1OC)-c1nnc(C)n1C1(CCCC1)C2 > 30 µM
Cc1ccc(NC(=O)CSc2nnc(-c3ccncc3)o2)cc1 > 30 µM
Oc1ccc(-c2n[nH]c(=S)n2Cc2ccccc2)cc1 > 30 µM
COc1ccc(Nc2nc(-c3cc4cccc(OC)c4oc3=O)cs2)cc1 > 30 µM
COc1ccc(-c2nc(N)ncc2-c2ccccc2)c(O)c1 > 30 µM
CCOC(=O)c1[nH]c2c(c1C)C(=O)CC(c1ccc(OC)c(OC)c1)C2 (stereo unspecified) > 30 µM
CCCCOC(=O)C1=C(C)Nc2ncnn2C1c1cc(OC)ccc1OC (stereo unspecified) > 30 µM
CCc1cccc(NC(=O)C2CCN(c3ncnc4sc(C)c(C)c34)CC2)c1 > 30 µM
O=C(c1ccco1)c1cn(CC(=O)N2CCCC2)c2ccccc12 > 30 µM
O=C(CN(Cc1ccc(F)cc1)C(=O)CCC(=O)Nc1nccs1)NCc1ccc(F)cc1 > 30 µM
O=C(Nc1nccs1)C1CCN(S(=O)(=O)c2cnc[nH]2)CC1 > 30 µM
COc1ccc(CC(=O)Nc2nccs2)cc1OC > 30 µM
COC(=O)c1ccc(CSc2nnc(SCc3ccc(C(=O)OC)o3)s2)o1 > 30 µM
CN(C)CCCNc1oc(-c2ccccc2)nc1C#N > 30 µM
O=C(/C=C/c1cccc2ccccc12)c1ccncc1 > 30 µM
COCCNc1nc(N)c([N+](=O)[O-])c(N2CCCCCC2)n1 > 30 µM
CN1/C(=C/C(=O)C2CC2)C(C)(C)c2ccccc21 > 30 µM
COc1ccc2cc(C(N)=O)c(=Nc3ccccc3)oc2c1 > 30 µM
C/C(NCCCn1ccnc1)=C(\C#N)C(N)=O > 30 µM
Cc1ccc(-n2c(C)c([N+](=O)[O-])c3ccc(O)c(CN(C)C)c32)cc1 > 30 µM
Cc1c(CN(C)C)c2c(n1Cc1ccccc1)C(=O)c1ccc(Br)cc1-2 > 30 µM
c1ccc(-c2noc(CSc3nnnn3-c3ccccc3)n2)cc1 > 30 µM
CCOC(=O)c1cc(-c2ccc(F)cc2)n(CC(=O)NCc2cccnc2)c1C > 30 µM
CC(C)C(=O)Nc1cccc2nsnc12 > 30 µM
CCOC(=O)c1cccnc1NC(=O)c1ccncc1 > 30 µM
Cc1ccc(OCC(=O)NNC(=O)C(C)Sc2ncnc3sc(C)c(C)c23)cc1 (stereo unspecified) > 30 µM
N#C/C(=N\Nc1c(Cl)cccc1Cl)C(=O)NN > 30 µM
O=[N+]([O-])c1ccc(NC2CCCC2)cc1 > 30 µM
COc1c(-c2ccc(O)c(O)c2)oc2cc(O)cc(O)c2c1=O > 30 µM
COc1ccc(C2=Nn3c(nnc3-c3ccccc3)SC2)cc1OC > 30 µM
COc1cccc(/C=N/n2nnnc2N)c1OCC#N > 30 µM
CN1CCC(=NNC(=O)C(=O)NC2CCCC2)CC1 > 30 µM
O=[N+]([O-])c1cnc2nc(-c3ccncc3)nn2c1O > 30 µM
Cc1ccc(C2C3=C(CCCC3=O)Nc3[nH]c(=S)[nH]c(=O)c32)cc1 (stereo unspecified) > 30 µM
CC(=O)Nc1cccc(-c2csc(N)n2)c1 > 30 µM
Cc1cccc2c(N=Nc3ccccc3)c(O)[nH]c12 > 30 µM
Brc1ccc(-c2nc3ncccn3c2NC2CCCCC2)o1 > 30 µM

Molecules above that have a halogen (19):
AC50, inactive:
Cc1ccc(S(=O)(=O)Nc2cc(Cl)c(O)c3ncccc23)cc1 > 30 µM
O=C(COC(=O)CCc1ccc(S(=O)(=O)N2CCOCC2)cc1)Nc1ccc(Cl)cn1 > 30 µM
O=C(NCCCN1CCOCC1)c1ccc(Cl)c([N+](=O)[O-])c1 > 30 µM
O=C(O)c1ccc2c(c1)S(=O)(=O)c1cc(Cl)ccc1C2=O > 30 µM
O=C(c1ccc2c3n(nc2c1)-c1ccc(Cl)cc1CO3)N1CCCCC1 > 30 µM
Clc1ccccc1/C=N/Nc1cc(N2CCOCC2)ncn1 > 30 µM
O=[N+]([O-])c1ccc(NCCCN2CCOCC2)c(Cl)c1 > 30 µM
CN(c1ccccc1)c1nc(N)c([N+](=O)[O-])c(Nc2ccccc2F)n1 > 30 µM
O=C(N/N=C/c1ccc(Cl)c(Cl)c1)c1ccc2nc[nH]c2c1 > 30 µM
CC(NC(=O)COc1ccccc1F)C1CC2CCC1C2 (stereo unspecified) > 30 µM
CC(C)(C)C(=O)c1cnc(Nc2ccccc2Cl)s1 > 30 µM
O=C(CCN1CCOCC1)Nc1cccc(Br)c1 > 30 µM
COc1cc(Br)c(C2C(C#N)=C(N)Oc3n[nH]c(-c4cccnc4)c32)cc1OC (stereo unspecified) > 30 µM
Cc1onc(-c2c(F)cccc2Cl)c1C(=O)OCC(=O)Nc1c(C)n(C)n(-c2ccccc2)c1=O > 30 µM
O=C(CN(Cc1ccc(F)cc1)C(=O)CCC(=O)Nc1nccs1)NCc1ccc(F)cc1 > 30 µM
Cc1c(CN(C)C)c2c(n1Cc1ccccc1)C(=O)c1ccc(Br)cc1-2 > 30 µM
CCOC(=O)c1cc(-c2ccc(F)cc2)n(CC(=O)NCc2cccnc2)c1C > 30 µM
N#C/C(=N\Nc1c(Cl)cccc1Cl)C(=O)NN > 30 µM
Brc1ccc(-c2nc3ncccn3c2NC2CCCCC2)o1 > 30 µM

— PubChem BioAssay AID463205 (Broad Institute, 2010)
